According to US12618070B2, “Increasing Atoh1 life to drive sensorineural hair cell differentiation” (Massachusetts Eye and Ear Infirmary, priority 2014, dated 2026):

Test system: HEK cells
Experiment: Cycloheximide chase, half-life of truncated and mutated FLAG-Atoh1
Assay type: cell-based
Settings: cycloheximide 100 ug/ml, 4-hour time frame, compared with wild-type

Molecule | effect of serine to alanine mutation on Atoh1 half-life
S328A: Atoh1 with serine 328 mutated to alanine (protein, UniProt P48985 1-351, looked up, variant S328A) Transcription factor Atoh1: MSRLLHAEEWAEVKELGDHHRHPQPHHVPPLTPQPPATLQARDLPVYPAELSLLDSTDPRAWLTPTLQGLCTARAAQYLLHSPELGASEAAAPRDEADSQGELVRRSGCGGLSKSPGPVKVREQLCKLKGGVVVDELGCSRQRAPSSKQVNGVQKQRRLAANARERRRMHGLNHAFDQLRNVIPSFNNDKKLSKYETLQMAQIYINALSELLQTPNVGEQPPPPTASCKNDHHHLRTASSYEGGAGASAVAGAQPAPGGGPRPTPPGPCRTRFSGPASSGGYSVQLDALHFPAFEDRALTAMMAQKDLSPSLPGGILQPVQEDNSKTAPRSHRSDGEFSPHSHYSDSDEAS | modestly prolonged
S331A: Atoh1 with serine 331 mutated to alanine (protein, UniProt P48985 1-351, looked up, variant S331A) Transcription factor Atoh1: MSRLLHAEEWAEVKELGDHHRHPQPHHVPPLTPQPPATLQARDLPVYPAELSLLDSTDPRAWLTPTLQGLCTARAAQYLLHSPELGASEAAAPRDEADSQGELVRRSGCGGLSKSPGPVKVREQLCKLKGGVVVDELGCSRQRAPSSKQVNGVQKQRRLAANARERRRMHGLNHAFDQLRNVIPSFNNDKKLSKYETLQMAQIYINALSELLQTPNVGEQPPPPTASCKNDHHHLRTASSYEGGAGASAVAGAQPAPGGGPRPTPPGPCRTRFSGPASSGGYSVQLDALHFPAFEDRALTAMMAQKDLSPSLPGGILQPVQEDNSKTSPRAHRSDGEFSPHSHYSDSDEAS | modestly prolonged
S334A: Atoh1 with serine 334 mutated to alanine (protein, UniProt P48985 1-351, looked up, variant S334A) Transcription factor Atoh1: MSRLLHAEEWAEVKELGDHHRHPQPHHVPPLTPQPPATLQARDLPVYPAELSLLDSTDPRAWLTPTLQGLCTARAAQYLLHSPELGASEAAAPRDEADSQGELVRRSGCGGLSKSPGPVKVREQLCKLKGGVVVDELGCSRQRAPSSKQVNGVQKQRRLAANARERRRMHGLNHAFDQLRNVIPSFNNDKKLSKYETLQMAQIYINALSELLQTPNVGEQPPPPTASCKNDHHHLRTASSYEGGAGASAVAGAQPAPGGGPRPTPPGPCRTRFSGPASSGGYSVQLDALHFPAFEDRALTAMMAQKDLSPSLPGGILQPVQEDNSKTSPRSHRADGEFSPHSHYSDSDEAS | dramatic effect
